Measurements from PubChem BioAssay AID493014 (National Center for Advancing Translational Sciences (NCATS), 2011).
Among all 340,000 compounds or so, about 170 (0.05%) were called active. Inconclusive results, whose numbers are uncertain, are shown with a selection of clear calls. The call rests on the fitted dose curve; in most records, active means well fitted inhibition curve with a large enough effect in the signal ratio, with a control signal flat (not every such curve was filed as active); inconclusive means small, poorly fitted or top-dose-only effect, or effect the other way, or a change in a side signal; inactive means flat fitted curve, though single readings scatter; the % refers to the signal ratio. A potency beside an inconclusive call is a rough fit, not a confirmed value.

Assay: qHTS Assay to Find Inhibitors of Chronic Active B-Cell Receptor Signaling;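 on activity change, negative = inhibition: plate controls were basal doxycycline-induced cells for no effect and cells given 10 µM MG132 for full effect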
Details: ABC-DLBCL IkBa-CBG/CBR reporter, luminescence ratio (green luciferase fused to IkBa over red control in TMD8 lymphoma cells), 4 h; activity change, negative = inhibition: at 46.1 µM (top of the series)
Procedure, shortened: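 TMD8 human ABC-DLBCL cells with doxycycline-inducible IκBα–green luciferase fusion and unfused red luciferase, in 0.5% FBS medium; compounds up to 46 uM, 4 h at 37C. Green/red luminescence ratio, filter-overlap corrected, fitted to concentration-response curves.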
Potency means the concentration at half of the fitted maximal effect.

**Q.** Which activity change, negative = inhibition does the source give for `c1ccc2c(c1)Cc1cc(CN3CCOCC3)ccc1-2` here?
**A.** inconclusive: 7.27%

**Q.** Which activity change, negative = inhibition does the source give for `CC(=O)c1nc(N2C(=O)C3CC=C(C)CC3C2=O)sc1C` (stereo not drawn) here?
**A.** inconclusive: 2.88%

**Q.** For `O=C(O)CC/C(=N\NC(=O)c1ccccc1)c1cccs1`, which Potency is on record?
**A.** inconclusive: 3.98 µM [falling, partial curve]

**Q.** For `CC(C)c1cc(CN2CCN(Cc3ccc(F)c(F)c3)C(CCO)C2)[nH]n1` (stereo not drawn), which activity change, negative = inhibition is on record?
**A.** inconclusive: 3.87%

**Q.** Which activity change, negative = inhibition does the source give for `C=CCC[C@H](Cc1ccc(F)cc1)C(=O)OC[C@H](Cc1c[nH]c2ccccc12)NC(=O)[C@@H](CC=C)CC(=O)N[C@H](CO)Cc1ccccc1` here?
**A.** inconclusive: -0.654%

**Q.** For `CCN(CC)CCn1c(SCC(=O)Nc2ccc(F)cc2)nc2c(sc3ccccc32)c1=O`, which Potency is on record?
**A.** inconclusive: 7.08 µM [falling, partial curve, poor fit]

**Q.** With `CC(C)(C)OC(=O)N1CCC(NC(=O)c2[nH]cnc2C(=O)N[C@@H](Cc2ccccc2)C(=O)OCc2ccccc2)CC1` as the compound, how does the Potency read?
**A.** inconclusive: 12.6 µM [falling, partial curve]

**Q.** Which Potency does the source give for `CCC/C(=N\NC(=O)c1cccc(C)c1)c1ccccc1` here?
**A.** inconclusive: 18.4 µM [falling, partial curve]

**Q.** Which activity change, negative = inhibition does the source give for `COc1ccc(Cl)cc1C(=O)Nc1ccccc1N1CCN(C(=O)C(C)C)CC1` here?
**A.** inactive

**Q.** For `Cc1ccc(SCCNC(=O)c2ccc(C)c(S(=O)(=O)Nc3cccc(C)c3)c2)cc1`, which activity change, negative = inhibition is on record?
**A.** inconclusive: -7.13%

**Q.** Which Potency does the source give for `C/C(=N\NC(=O)c1csc(C)c1C)c1ccco1` here?
**A.** inconclusive: 18.4 µM [falling, partial curve]

**Q.** Which Potency does the source give for `Cc1ccccc1Nc1cc(C(=O)NCCCN2CCN(c3cccc(Cl)c3)CC2)c2ccccc2n1` here?
**A.** inconclusive: 14.1 µM [rising, single point]

**Q.** For `CCCCc1ccc(-c2csc(/C(C#N)=C/c3ccco3)n2)cc1`, which activity change, negative = inhibition is on record?
**A.** inconclusive: 9.58%

**Q.** Which Potency does the source give for `O=C(NC1CC(=O)N(c2cccc(F)c2)C1)c1cccs1` (stereo not drawn) here?
**A.** inconclusive: 12.6 µM [falling, single point]

**Q.** Which activity change, negative = inhibition does the source give for `CCOc1ccc(C(=O)NCc2ccc3c(c2)CCN3C(=O)c2ccc(Cl)cc2)cc1` here?
**A.** inactive

**Q.** Which activity change, negative = inhibition does the source give for `CC(C)(C)c1ccc(C(=O)NCC(=O)N2CCC3(CC2)NCCc2[nH]cnc23)cc1` here?
**A.** inconclusive: -12.7%

**Q.** For `O=C(Nc1cccc(Cl)c1)C1C2CCC3C(CCC21)C3(Cl)Cl` (stereo not drawn), which activity change, negative = inhibition is on record?
**A.** inconclusive: 19.6%

**Q.** With `COc1ccc(OC)c(Nc2ncnc3ccccc23)c1` as the compound, how does the activity change, negative = inhibition read?
**A.** inactive

**Q.** Which activity change, negative = inhibition does the source give for `CCOc1ccc(S(=O)(=O)N2CCN(C(=O)c3cc([N+](=O)[O-])ccc3N3CCOCC3)CC2)cc1` here?
**A.** inactive

**Q.** Which activity change, negative = inhibition does the source give for `NC(=O)N/N=C\c1cc(Br)ccc1O` here?
**A.** inactive

**Q.** For `COc1ccc(-c2cc(C(=O)N/N=C/c3ccc(OC)c(COCC(F)(F)C(F)F)c3)c3ccccc3n2)c(OC)c1`, which activity change, negative = inhibition is on record?
**A.** inconclusive: 1.04%

**Q.** Which activity change, negative = inhibition does the source give for `CCOC(=O)C1=NN(c2ccccc2C)C2=NC(C)=C(C(=O)OC)C(c3cccs3)N12` (stereo not drawn) here?
**A.** inconclusive: -11.8%

**Q.** For `CCOC(=O)C1=C(C)NC(C)=C(C(=O)OCC)C1c1ccc(C)o1`, which Potency is on record?
**A.** inconclusive: 14.1 µM [falling, partial curve, poor fit]

**Q.** With `Cc1ccc(C)c(CN2CCC(n3nccc3NC(=O)CCCc3ccccc3)CC2)c1` as the compound, how does the activity change, negative = inhibition read?
**A.** inconclusive: -0.516%

**Q.** Which activity change, negative = inhibition does the source give for `O=C(CNc1cccc(S(=O)(=O)N2CCCC2)c1)Nc1cccc(C(F)(F)F)c1` here?
**A.** inactive

**Q.** For `COc1ccc(CCNC(=O)c2cccs2)cc1`, which Potency is on record?
**A.** inconclusive: 17.8 µM [falling, single point]

**Q.** For `CCS(=O)(=O)N1CCC(C(=O)Oc2ccccc2Cl)CC1`, which activity change, negative = inhibition is on record?
**A.** inconclusive: 10.5%

**Q.** Which activity change, negative = inhibition does the source give for `Cc1cc2cc(CN(Cc3cccs3)C(=S)NCc3ccco3)c(=O)[nH]c2cc1C` here?
**A.** inconclusive: 11.1%

**Q.** Which activity change, negative = inhibition does the source give for `O=C(Oc1oc(-c2ccco2)nc1C=Nc1ccc(Cl)cc1)c1ccco1` here?
**A.** inconclusive: -13.3%

**Q.** For `Cn1cc(CN2CCN(CCO)CC2)c(-c2ccc(Oc3ccccc3)cc2)n1`, which activity change, negative = inhibition is on record?
**A.** inconclusive: 18.4%

**Q.** With `Cn1nccc1C(=O)NC1CCCc2c1cnn2-c1ccc(F)cc1F` (stereo not drawn) as the compound, how does the activity change, negative = inhibition read?
**A.** inconclusive: 7.44%

**Q.** For `CCOC(=O)C1(Cc2ccccc2)CCN(Cc2nccn2CC)CC1`, which activity change, negative = inhibition is on record?
**A.** inactive

**Q.** Which activity change, negative = inhibition does the source give for `COc1ccc(-c2cn[nH]c2-c2ccc(OCC(=O)NN)cc2O)cc1OC` here?
**A.** inconclusive: 7.11%

**Q.** For `CC(=O)c1cccc(NC(=O)C(C)N2CCc3ccccc3C2)c1` (stereo not drawn), which activity change, negative = inhibition is on record?
**A.** inconclusive: 1.31%

**Q.** Which Potency does the source give for `O=C(/C(=C/c1ccc(Cl)cc1)c1nc2ccccc2[nH]1)c1ccccc1` here?
**A.** inconclusive: 10 µM [falling, partial curve]

**Q.** For `OCCNc1nc2ccccc2n1-c1ncnc2sc3c(c12)CCC3`, which activity change, negative = inhibition is on record?
**A.** inconclusive: -20.4%

**Q.** For `CN(C)S(=O)(=O)N1CCC(Oc2ccc(C(=O)NC3CCCCC3)cc2)CC1`, which Potency is on record?
**A.** inconclusive: 6.31 µM [falling, single point]

**Q.** For `CCOC(=O)c1cc(CC)sc1N1C(=O)CC(Sc2ccccc2C(=O)O)C1=O` (stereo not drawn), which Potency is on record?
**A.** inconclusive: 12.6 µM [rising, partial curve, poor fit]

**Q.** Which Potency does the source give for `COc1ccc(CCNC(=O)c2ccccc2)cc1` here?
**A.** inconclusive: 17.8 µM [falling, single point]

**Q.** Which activity change, negative = inhibition does the source give for `COc1ccc(CCNC(=O)CCSCc2ccccc2F)cc1OC` here?
**A.** inconclusive: -0.277%

**Q.** With `O=C(C=C=Nc1ccccc1)C(=O)N=C=Cc1ccccc1` as the compound, how does the activity change, negative = inhibition read?
**A.** inconclusive: 9.41%

**Q.** With `COc1ccc(C2CC(C(F)(F)F)n3nc(CO)c(Cl)c3N2)cc1OC` (stereo not drawn) as the compound, how does the activity change, negative = inhibition read?
**A.** inconclusive: -1.39%

**Q.** For `Cc1ccc(C(=O)COC(=O)c2nc(Cl)ccc2Cl)cc1`, which activity change, negative = inhibition is on record?
**A.** inconclusive: 1.64%

**Q.** Which Potency does the source give for `O=C(NNC(=S)Nc1ccccc1C(F)(F)F)c1cccnc1` here?
**A.** inconclusive: 35.5 µM [falling, partial curve, poor fit]

**Q.** For `O=C(Nc1ccc(Cl)cn1)C1CCN(c2ncnc3c2nc2n3CCCCC2)CC1`, which Potency is on record?
**A.** inconclusive: 35.5 µM [activator, single point]

**Q.** With `NC(=O)c1ccc(Oc2ccc3ccc(=O)oc3c2)c([N+](=O)[O-])c1` as the compound, how does the Potency read?
**A.** inconclusive: 11.2 µM [falling, partial curve]

**Q.** For `Cc1ccc2c(c1)c1c3n2CCN(C(=O)C2CC2)C3CCC1` (stereo not drawn), which activity change, negative = inhibition is on record?
**A.** inconclusive: 6.51%

**Q.** Which activity change, negative = inhibition does the source give for `CC(C)OC(=O)c1ccc(NC(=O)c2ccccc2)cc1` here?
**A.** inconclusive: -3.1%
